In publication PMC7819943, “Rice protein-binding microarrays: a tool to detect cis-acting elements near promoter regions in rice”:
The other results are listed elsewhere or left out.

Protein sequences, listed by entry. Tags and fused reporters are not part of them.
UniProt Q0JBA9, entry or part of it: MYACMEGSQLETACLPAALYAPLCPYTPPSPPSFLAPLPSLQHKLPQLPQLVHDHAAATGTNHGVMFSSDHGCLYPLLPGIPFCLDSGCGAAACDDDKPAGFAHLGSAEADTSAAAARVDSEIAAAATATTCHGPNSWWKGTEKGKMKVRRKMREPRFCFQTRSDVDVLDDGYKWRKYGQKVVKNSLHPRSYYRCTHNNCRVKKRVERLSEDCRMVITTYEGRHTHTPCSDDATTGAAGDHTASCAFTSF

Biological target: OsWRKY34 (Oryza sativa, UniProt Q0JBA9 1-250)
Experiment: protein-binding microarray (RPBM); PBS, 2% BSA, 51.3 ng/ul salmon testes DNA, 50 uM zinc acetate, 200 nM TF, 25 C, 1 h; high values mean tight binding
Conditions: protein: recombinant; tags: N-terminal polyhistidine and DsRed monomer fusion (pET32a); label: CyDye5-dUTP incorporated in the synthesized complementary strand; 3' TTTTT single-stranded linker to array surface; dsDNA, one strand shown
Method in brief: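 Binding signal here means per-feature fluorescence intensity in arbitrary units. The values were read on an Axon 4000B scanner after a custom Agilent array, double-stranded by primer extension with Cy5-dUTP, was incubated with 200 nM protein at 25 °C for 1 h in PBS with 2% BSA, salmon testes DNA and 50 µM zinc acetate, then washed. The proteins were transcription factors with an N-terminal polyhistidine tag and DsRed, expressed in E. coli BL21-CodonPlus and purified on Ni–NTA.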

| Sequence | binding signal |
| --- | --- |
| TTTACGTGTTTGGTGTGTTCTACAGTTCGAGATGTGTCGACGGAGTCACCTAGTGCAG | 9740 fluorescence intensity (a.u.) |
| CCCATCACTTCCCGTACACCTGGCACCCCTACACTCCCGCCGGAGTCACCTAGTGCAG | 8630 fluorescence intensity (a.u.) |
| GCCACGAACGCGCCGTCACCATCGCGCATCACCCCTAGCCCGGAGTCACCTAGTGCAG | 9710 fluorescence intensity (a.u.) |
| GTCTCCGCCGTAACCTCCTGCGAGCGGCCTCCTCGCCGCTCGGAGTCACCTAGTGCAG | 11500 fluorescence intensity (a.u.) |
| AAGTCATTCTCCACGGCGTCCTTTTTATTACCACCTCTGTCGGAGTCACCTAGTGCAG | 12500 fluorescence intensity (a.u.) |
| CCATTTTGATACCTATTCGTCCCGTATTTATGCCCGCTGTCGGAGTCACCTAGTGCAG | 12000 fluorescence intensity (a.u.) |
| GGTTGTAATTTGGTAATGCCATTTTTTTTTTTGTTATTGACGGAGTCACCTAGTGCAG | 11200 fluorescence intensity (a.u.) |
| CTCTCTGTGTGTGTGTTTGCTTTCTTGGGCTGTATCGACTCGGAGTCACCTAGTGCAG | 11800 fluorescence intensity (a.u.) |
| CCTTTTGTGGTTTATAGTTTCCACCTGACCTGACAAAAAGCGGAGTCACCTAGTGCAG | 9040 fluorescence intensity (a.u.) |
| AATCTATCGACGCCACCGATCGACCTACGCCTGCAAATTACGGAGTCACCTAGTGCAG | 8240 fluorescence intensity (a.u.) |
| TCCCCACCAACTGCCGCCTCTCGTCGCCTCGCCTCGCCGGCGGAGTCACCTAGTGCAG | 8040 fluorescence intensity (a.u.) |
| ATACTCTATCTCTGAGATTCAGATTACTAGTTTTGTTGGACGGAGTCACCTAGTGCAG | 8660 fluorescence intensity (a.u.) |
| CGCCGGCTTTGGATTTTTCGTTCTGCCTCGCGACCGACGACGGAGTCACCTAGTGCAG | 10500 fluorescence intensity (a.u.) |
| CTCCTCATCCTCATCGTCGCCGCCGCCCACGTCGTCTCGCCGGAGTCACCTAGTGCAG | 9110 fluorescence intensity (a.u.) |
| TAAACTTGCTCTGATGCGCCCACACGGGGCCACGGCGCGCCGGAGTCACCTAGTGCAG | 9010 fluorescence intensity (a.u.) |
| CGAAACTTCGACGTATTCGCCGACTGATCTTTTCGATCTACGGAGTCACCTAGTGCAG | 10100 fluorescence intensity (a.u.) |
| AATCGTTGATGAGCCGCGGTCGTTTCCTCTTCTCTTGCGTCGGAGTCACCTAGTGCAG | 11100 fluorescence intensity (a.u.) |
| CCCTAGCCGCCACCGTTCACTCTCCGCCTCTCCCTGGTTCCGGAGTCACCTAGTGCAG | 8920 fluorescence intensity (a.u.) |
| TGAGAGGATCCATGTCTCTTTCTTCTTCATTCATTCTTCCCGGAGTCACCTAGTGCAG | 12100 fluorescence intensity (a.u.) |
| CCATCACTCTCTCTTCACTCAATGCCGTGGAAATTGGAAGCGGAGTCACCTAGTGCAG | 8220 fluorescence intensity (a.u.) |
| CACGCATTCCTCTGCACCTCTGCAGTCTGCACACACGCACCGGAGTCACCTAGTGCAG | 12900 fluorescence intensity (a.u.) |

Copied from the list:
CACGCATTCCTCTGCACCTCTGCAGTCTGCACACACGCACCGGAGTCACCTAGTGCAG – binding signal: 12900 fluorescence intensity (a.u.)
GGTTGTAATTTGGTAATGCCATTTTTTTTTTTGTTATTGACGGAGTCACCTAGTGCAG – binding signal: 11200 fluorescence intensity (a.u.)

Further records

| Sequence | binding signal |
| --- | --- |
| TCCTGGTGAGCACATCCTCCGCCACCGCCGCCTGCTCCGACGGAGTCACCTAGTGCAG | 10400 fluorescence intensity (a.u.) |
| ACTTGATTTACGAACAGACATTTTTTATTTTTCTACACCACGGAGTCACCTAGTGCAG | 9230 fluorescence intensity (a.u.) |
| ATCTCGCTTCCATTTCTTCGCCATTTGAGCTTTCTTGGAGCGGAGTCACCTAGTGCAG | 8910 fluorescence intensity (a.u.) |
| GCTTTCTTGCTTCTATTCTGTACCAGGATTCTCCCAACCTCGGAGTCACCTAGTGCAG | 9130 fluorescence intensity (a.u.) |
| CCCCGCGCCTCAGTTTTTCTCTCACCCACGCGACGGCTCGCGGAGTCACCTAGTGCAG | 10900 fluorescence intensity (a.u.) |
| ACCCGTCTCTGTTCATCTCCACATCTTGTCTTCTCGCTGTCGGAGTCACCTAGTGCAG | 18100 fluorescence intensity (a.u.) |
| GCAAAACTAGCATCTTTATTTATTGGGGCATTGGTTATTACGGAGTCACCTAGTGCAG | 11000 fluorescence intensity (a.u.) |
| GATATGGTAATTTAGTGTCCATTATGGTGTTTCTTAATTGCGGAGTCACCTAGTGCAG | 8100 fluorescence intensity (a.u.) |
| TCCTAACCAAACGGGCCGTGATCCCTTTTGCTTCTCTGATCGGAGTCACCTAGTGCAG | 9300 fluorescence intensity (a.u.) |
| TGCATCACAAACACTTGTCGTCGTCTTCAATGCCACCAGCCGGAGTCACCTAGTGCAG | 8190 fluorescence intensity (a.u.) |
| CCTCTTCGAAGCCGTGAAATCTCAGCCGTCCATCCATGATCGGAGTCACCTAGTGCAG | 9040 fluorescence intensity (a.u.) |
| TCTTACACAATATGTTGTCTCCTGCTGCTTCATATGTTCTCGGAGTCACCTAGTGCAG | 14200 fluorescence intensity (a.u.) |
| TAGATAATTTTGTATGGGTTGCTAGCCGCGCAATTGCGCGCGGAGTCACCTAGTGCAG | 8420 fluorescence intensity (a.u.) |
| ATTTACCTTTACACGACACTTCAGTTGGTTTGAATGCTTTCGGAGTCACCTAGTGCAG | 8720 fluorescence intensity (a.u.) |
| TTTATTTTTAATTTTTTTGCGTTGGTGTGTGTTGTTCAATCGGAGTCACCTAGTGCAG | 11200 fluorescence intensity (a.u.) |
| AACGAATGCTTAGGCCCAAACTACAACTTTCTCGTTTTCTCGGAGTCACCTAGTGCAG | 11000 fluorescence intensity (a.u.) |
| GACGCGGCCCTCCGCCGACACCCTCGCTTCCTCTCCTGGTCGGAGTCACCTAGTGCAG | 8620 fluorescence intensity (a.u.) |
| AGCGATGGTGGTGGTGGTGGTGGTGGTGGCTGGGTTGCTTCGGAGTCACCTAGTGCAG | 28200 fluorescence intensity (a.u.) |
| GCTTCGCTTTGGTTTTGGTCCTCAAAACTTCCAGTCTGACCGGAGTCACCTAGTGCAG | 8370 fluorescence intensity (a.u.) |
| ACCACTGTTTCGTCTGTTACTGCAGGATATCGTTCCGAAACGGAGTCACCTAGTGCAG | 9630 fluorescence intensity (a.u.) |
| CTCTCACATCTTCTTTCTTTCCTTCTCTGGATCTCTTCCACGGAGTCACCTAGTGCAG | 8560 fluorescence intensity (a.u.) |
